# For at least one compound, name, drawing or mass did not settle the structure.
# Tested on: 4 KRAS mutant PDAC cell lines (MIA PaCa-2, Panc-1, T182, E549)
# Assay: Viability of KRAS mutant PDAC cell lines after single-drug treatment, MTT assay at 72 hours
# Format: cell-based, human; murine
# Conditions: 4 PDAC cell lines
# Method: We treated each cell line with the mTOR inhibitor Everolimus, the AKT inhibitor MK-2206, the dual PI-3K/mTOR inhibitor BEZ235, and the MEK inhibitor Selumetinib, or Compound P (mefloquine), prior to viability assessment at 72 hours via MTT assay.
# To determine optimal doses for combination, we first analyzed the viability dose-response curves for each drug. […] The optimal dose for each drug was then serially diluted by one-half from the chosen optimal dose to 1/32nd of the chosen optimal dose, such that six combination points could be analyzed. Because the ratio of each drug in each experiment remained constant in all serial dilutions, we refer to this method as the “fixed molar ratio method”.
compound,measurement,value
Cn1cnc2c(F)c(Nc3ccc(Br)cc3Cl)c(C(=O)NOCCO)cc21 [Selumetinib],growth inhibition effect on cell viability,little effect

# — patent US10835524B2, “Compositions for the treatment of pancreatic cancer and uses thereof” (University of Florida Research Foundation, Incorporated, priority 2015, dated 2020)
